Measured values published in the supplement of paper PMC6821926, “Diaminoquinazoline MMV675968 from Pathogen Box inhibits Acinetobacter baumannii growth through targeting of dihydrofolate reductase” (Scientific Reports, 2019).
± gives the uncertainty stated by the source. The list shows a part of the results.

Legend:
[1] = tested on: Acinetobacter baumannii Mahidol; experiment: percent growth relative to DMSO-treated control; higher = less growth inhibition; details: 10 µM; 18 h
[2] = tested on: Acinetobacter baumannii Naval-81; experiment: as above; details: 10 µM; 18 h

Q: How did the percent growth [1] turn out when `COc1ccc(-c2cc(NC(=O)c3ccc(F)cc3Cl)ccc2OC)cc1` was run?
A: 108 ± 12%

Q: And the percent growth [2]?
A: 73.2 ± 9%

Q: How did the percent growth [1] turn out when `CC(C)N=c1cc2n(-c3ccc(Cl)cc3)c3ccccc3nc-2cc1Nc1ccc(Cl)cc1` was run?
A: 40.5 ± 34%

Q: And the percent growth [2]?
A: 118 ± 45%

Q: Which percent growth [1] does the source give for `O=C(COc1cccc(F)c1)Nc1nc(-c2ccccn2)cs1` here?
A: 84.7 ± 26%

Q: And the percent growth [2]?
A: 91.6 ± 6.3%

Q: Which percent growth [1] does the source give for `COc1ccc(N(CCc2cccc(C)n2)C(=O)C2CCCCC2)cc1` here?
A: 98.2 ± 4.3%

Q: And the percent growth [2]?
A: 92.3 ± 7%

Q: What does the source list for `COC(=O)c1c(NC(=O)c2cc3ccccc3oc2=O)sc2c1CCN(Cc1ccccc1)C2`?
A: percent growth [1]: 75.7 ± 40%; percent growth [2]: 86.2 ± 8.1%

Q: What does the source list for `CC(C)C(NC(=O)Cc1cccc2ccccc12)C(=O)Nc1cccc(C#N)c1` (centres undefined)?
A: percent growth [1]: 118 ± 26%; percent growth [2]: 89.5 ± 11%

Q: How did the percent growth [1] turn out when `O=C(N[C@H](Cc1ccccc1)C(=O)Nc1ccccc1N1CCOCC1)c1cccs1` was run?
A: 88.7 ± 10%

Q: And the percent growth [2]?
A: 96.8 ± 4.2%

Q: For `COc1cc(-c2cc(-c3ccc(S(C)(=O)=O)cc3)cnc2N)ccc1O`, which percent growth [1] is on record?
A: 91.4 ± 8.7%

Q: What about the percent growth [2] of the same molecule?
A: 83.5 ± 13%

Q: What does the source list for `O=C(Nc1cccc(Cl)c1)c1cnc(N2CCN(c3ccncc3)CC2)c(Cl)c1`?
A: percent growth [1]: 95.2 ± 8.3%; percent growth [2]: 91.2 ± 6.5%

Q: `CN(C(=O)c1cc2c(-c3cncnc3)cccc2[nH]1)c1ccccc1` was tested. Which percent growth [1] did it give?
A: 88.4 ± 11%

Q: What about the percent growth [2] of the same molecule?
A: 90 ± 26%

Q: Which results are given for `COc1ccc(Cl)cc1NC(=O)CN(C)C(=O)c1cnn(-c2ccccc2)n1`?
A: percent growth [1]: 46.1 ± 43%; percent growth [2]: 104 ± 35%

Q: For `C[C@H](C(N)=O)N1CCCC[C@H]1c1ccc(OCc2cccc(F)c2)cc1`, which percent growth [1] is on record?
A: 87.3 ± 6.7%

Q: And the percent growth [2]?
A: 86.5 ± 6.2%

Q: Which results are given for `COC(=O)c1c(NC(=O)c2c(F)c(F)c(F)c(F)c2F)sc2c1CCCCC2`?
A: percent growth [1]: 111 ± 18%; percent growth [2]: 93.3 ± 14%

Q: What does the source list for `Nc1nc(N)c2c3c(sc2n1)CN(Cc1ccccc1)CC3`?
A: percent growth [1]: 94.4 ± 4.2%; percent growth [2]: 85 ± 9.8%

Q: `COc1ccc(Cn2cnc3c(-c4ccco4)nc(Cl)nc32)cc1` was tested. Which percent growth [1] did it give?
A: 104 ± 22%

Q: What about the percent growth [2] of the same molecule?
A: 109 ± 11%

Q: For `O=C1COCc2ccc(Br)cc2N1Cc1ccc(C(F)(F)F)cc1`, which percent growth [1] is on record?
A: 101 ± 15%

Q: What about the percent growth [2] of the same molecule?
A: 98 ± 10%

Q: `O=S(=O)(c1ccc(Cl)cc1)N1CCN(C(=S)NCc2ccco2)CC1` was tested. Which percent growth [1] did it give?
A: 48.6 ± 43%

Q: What about the percent growth [2] of the same molecule?
A: 99.7 ± 40%

Q: With `Cc1nn(C)cc1C(C)Nc1nncc(-c2ccc(C(F)(F)F)cc2)n1` (centres undefined) as the molecule, how does the percent growth [1] read?
A: 97.9 ± 10%

Q: And the percent growth [2]?
A: 96.5 ± 20%

Q: For `CC(c1cc(Cl)cc(Cl)c1)N(C)c1ncc2c(N)nc(N)nc2n1` (centres undefined), which percent growth [1] is on record?
A: 107 ± 24%

Q: And the percent growth [2]?
A: 98.7 ± 14%

Q: With `O=C(NC1CC1)c1ccc(N2CCC(Cc3ccccc3)CC2)nc1` as the molecule, how does the percent growth [1] read?
A: 95.4 ± 33%

Q: What about the percent growth [2] of the same molecule?
A: 82.4 ± 19%

Q: With `Cc1cc(NC(=O)c2ccc(Oc3ccc(Cl)cc3O)o2)no1` as the molecule, how does the percent growth [1] read?
A: 83.1 ± 35%

Q: And the percent growth [2]?
A: 37.4 ± 16%

Q: With `CCc1c(C)nc(-n2nc(C)cc2NC(=O)c2ccccc2SC)[nH]c1=O` as the molecule, how does the percent growth [1] read?
A: 104 ± 7%

Q: And the percent growth [2]?
A: 84.2 ± 18%

Q: Which results are given for `FC(F)(F)c1cnc(Sc2nnc(-c3ccncc3)o2)c(Cl)c1`?
A: percent growth [1]: 86.4 ± 3.3%; percent growth [2]: 96.8 ± 2.4%

Q: Which percent growth [1] does the source give for `CC(=O)Oc1ccccc1C(=O)Nc1ncc([N+](=O)[O-])s1` here?
A: 70.9 ± 22%

Q: What about the percent growth [2] of the same molecule?
A: 87.3 ± 8.8%

Q: For `Cc1cc(NCC(C)C)c2n[nH]c(-c3ccccc3)c2n1`, which percent growth [1] is on record?
A: 89.9 ± 5%

Q: And the percent growth [2]?
A: 102 ± 5.1%

Q: What does the source list for `Cc1ccc(Oc2ccc(NC(=O)CNc3ccccc3N3CCCC3=O)cc2)cc1`?
A: percent growth [1]: 104 ± 37%; percent growth [2]: 81.21 ± 0.7%

Q: Which results are given for `CN(C)CCNC(=O)N1CCCN(c2ncnc3cc(-c4ccccc4)sc23)CC1`?
A: percent growth [1]: 87.1 ± 5.7%; percent growth [2]: 87.3 ± 10%
